From PubChem BioAssay AID256 (DTP/NCI, 2004)
The list shows only some results of the screen, not a fair sample: it is rich in T/C values a quarter to a half above the control, in often repeated tests (any T/C) and in doses without a T/C. Other doses and runs of a compound stand elsewhere. T/C gives the treated animals as a percentage of the vehicle group. Some doses have a count of surviving animals in place of a T/C: the source files T/C as zero there, which appears to mark a toxic dose or a test without result, not a measured value. Some doses without a T/C left all or most animals alive at the check, yet need not have been tolerated: the source hardly ever lists a survival T/C far under the control, and the zero likely stands for such cases as well. Survivors were counted at the toxicity check, usually on the fifth day, unless a day is given; later deaths do not show. Schedule codes are those of the source, taken here to give the interval after Q, in days (D) or hours (H), and the number of doses after X. For survival time, the PubChem record calls one and a half times the control and up active, and a quarter to a half above the control has no call in these data; cut-offs in other NCI protocols can differ. Some T/C values are followed by the survivors on the day toxicity was checked, most often the fifth; where none is given, no animal had died by that day. Some entries hold several experiments; their values stand side by side, smallest first. Brackets with × say how often a value occurs here.

System: CD2F1 mice, L1210 leukemia ip, survival T/C
Test: NCI In Vivo Anticancer Drug Screen. Data for tumor model L1210 Leukemia (intraperitoneal) in CD2F1 (CDF1) mice
Conditions: higher T/C = longer survival
How it was run: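 Transplantable tumor in mice; compound-treated vs vehicle-treated groups. Read-out = treated/control ratio of the measured endpoint.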

[1] = T/C endpoint: mean survival time, dose: 100.0 mg/kg/injection, schedule: Q04DX003 (ip), vehicle: other
[2] = T/C endpoint: mean survival time, dose: 200.0 mg/kg/injection, schedule: Q04DX003 (ip), vehicle: other
[3] = T/C endpoint: median survival time, dose: 16.0 mg/kg/injection, schedule: Q04DX002 (ip), vehicle: saline with Tween-80
[4] = T/C endpoint: mean survival time, dose: 100.0 mg/kg/injection, schedule: Q01DX001 (ip), vehicle: other
[5] = T/C endpoint: mean survival time, dose: 400.0 mg/kg/injection, schedule: Q01DX001 (ip), vehicle: other
[6] = T/C endpoint: mean survival time, dose: 400.0 mg/kg/injection, schedule: Q04DX003 (ip), vehicle: saline with Tween-80
[7] = T/C endpoint: mean survival time, dose: 400.0 mg/kg/injection, schedule: Q04DX003 (ip), vehicle: other
[8] = T/C endpoint: mean survival time, dose: 400.0 mg/kg/injection, schedule: Q04DX003 (ip), vehicle: saline

CC[C@@]1(O)C(=O)OCc2c1cc1n(c2=O)Cc2cc3ccccc3nc2-1
T/C (T/C endpoint: mean survival time, dose: 6.25 mg/kg/injection, schedule: Q04DX003 (ip), vehicle: water): 146 % of control [5 of 6 alive]
survivor count (T/C endpoint: mean survival time, dose: 12.5 mg/kg/injection, schedule: Q04DX003 (ip), vehicle: other): 5 of 6
survivor count (T/C endpoint: mean survival time, dose: 25.0 mg/kg/injection, schedule: Q04DX003 (ip), vehicle: other): 1 of 6
survivor count (T/C endpoint: mean survival time, dose: 50.0 mg/kg/injection, schedule: Q04DX003 (ip), vehicle: other): 2 of 6
survivor count [1]: 0 of 6
survivor count [2]: 0 of 6
T/C (T/C endpoint: median survival time, dose: 1.0 mg/kg/injection, schedule: Q04DX002 (ip), vehicle: saline with Tween-80): 102, 110 (2×), 116, 122, 128 (2×), 135, 146, 147 % of control [5 of 6 alive]
T/C (T/C endpoint: median survival time, dose: 1.25 mg/kg/injection, schedule: Q04DX002 (ip), vehicle: saline with Tween-80): 118 (2×), 119, 120, 122, 124, 127, 129, 131, 132, 156, 162 % of control
T/C (T/C endpoint: median survival time, dose: 2.0 mg/kg/injection, schedule: Q04DX002 (ip), vehicle: saline with Tween-80): 113, 124, 125 [5 of 6 alive], 127, 133, 134, 135, 150, 154, 166 % of control
T/C (T/C endpoint: median survival time, dose: 2.5 mg/kg/injection, schedule: Q04DX002 (ip), vehicle: saline with Tween-80, evaluated on day 22): 148 % of control
T/C (T/C endpoint: median survival time, dose: 2.5 mg/kg/injection, schedule: Q04DX002 (ip), vehicle: saline with Tween-80, evaluated on day 30): 125, 129, 131, 136, 141, 142 (2×), 146, 147, 152, 154, 157, 162 % of control
T/C (T/C endpoint: median survival time, dose: 2.5 mg/kg/injection, schedule: Q04DX002 (ip), vehicle: saline with Tween-80, evaluated on day 36): 157 % of control
T/C (T/C endpoint: median survival time, dose: 2.5 mg/kg/injection, schedule: Q04DX002 (ip), vehicle: saline with Tween-80, evaluated on day 46): 132 % of control
T/C (T/C endpoint: median survival time, dose: 4.0 mg/kg/injection, schedule: Q04DX002 (ip), vehicle: saline with Tween-80): 114, 125, 131, 146 (2×), 147, 152, 177, 182, 205 % of control
T/C (T/C endpoint: median survival time, dose: 5.0 mg/kg/injection, schedule: Q04DX002 (ip), vehicle: saline with Tween-80, evaluated on day 22): 166 % of control
T/C (T/C endpoint: median survival time, dose: 5.0 mg/kg/injection, schedule: Q04DX002 (ip), vehicle: saline with Tween-80, evaluated on day 30): 131, 142, 149, 153, 157, 162, 166 (3×), 185, 195, 202, 215 % of control
T/C (T/C endpoint: median survival time, dose: 5.0 mg/kg/injection, schedule: Q04DX002 (ip), vehicle: saline with Tween-80, evaluated on day 36): 178 % of control
T/C (T/C endpoint: median survival time, dose: 5.0 mg/kg/injection, schedule: Q04DX002 (ip), vehicle: saline with Tween-80, evaluated on day 46): 153 % of control
T/C (T/C endpoint: median survival time, dose: 8.0 mg/kg/injection, schedule: Q04DX002 (ip), vehicle: saline with Tween-80): 100, 125, 159, 164, 179 (2×), 197, 229, 239, 303 % of control
T/C (T/C endpoint: median survival time, dose: 10.0 mg/kg/injection, schedule: Q04DX002 (ip), vehicle: saline with Tween-80, evaluated on day 22): 180 % of control
T/C (T/C endpoint: median survival time, dose: 10.0 mg/kg/injection, schedule: Q04DX002 (ip), vehicle: saline with Tween-80, evaluated on day 30): 158, 160, 170, 175, 179, 181, 186, 189, 198, 219, 250, 267, 361 % of control
T/C (T/C endpoint: median survival time, dose: 10.0 mg/kg/injection, schedule: Q04DX002 (ip), vehicle: saline with Tween-80, evaluated on day 36): 208 % of control
T/C (T/C endpoint: median survival time, dose: 10.0 mg/kg/injection, schedule: Q04DX002 (ip), vehicle: saline with Tween-80, evaluated on day 46): 173 % of control
T/C (T/C endpoint: median survival time, dose: 15.0 mg/kg/injection, schedule: Q04DX002 (ip), vehicle: saline with Tween-80, evaluated on day 22): 196 % of control
T/C (T/C endpoint: median survival time, dose: 15.0 mg/kg/injection, schedule: Q04DX002 (ip), vehicle: saline with Tween-80, evaluated on day 30): 200 % of control
T/C (T/C endpoint: median survival time, dose: 15.0 mg/kg/injection, schedule: Q04DX002 (ip), vehicle: saline with Tween-80, evaluated on day 36): 265 % of control
T/C (T/C endpoint: median survival time, dose: 15.0 mg/kg/injection, schedule: Q04DX002 (ip), vehicle: saline with Tween-80, evaluated on day 46): 215 % of control
T/C [3]: 138, 146, 186 % of control
survivor count [3]: 6 of 6

O=C(CCl)NC(=O)NC1=C(Cl)C(=O)c2ccccc2C1=O
survivor count [4]: 0 of 6
survivor count (T/C endpoint: mean survival time, dose: 200.0 mg/kg/injection, schedule: Q01DX001 (ip), vehicle: other): 0 of 6
survivor count [5]: 0 of 6

Nc1nc(N)c2nc(NCc3ccc(C(=O)NC(CCC(=O)O)C(=O)O)cc3)cnc2n1 (stereo unspecified)
T/C (T/C endpoint: mean survival time, dose: 400.0 mg/kg/injection, schedule: Q01DX009 (ip), vehicle: saline): 128 % of control

CC1=CC(=O)C(CCC#N)C(C)(C)C1 (stereo unspecified)
survivor count (T/C endpoint: mean survival time, dose: 200.0 mg/kg/injection, schedule: Q04DX002 (ip), vehicle: saline with Tween-80): 0 of 3
survivor count (T/C endpoint: mean survival time, dose: 400.0 mg/kg/injection, schedule: Q04DX002 (ip), vehicle: saline with Tween-80): 0 of 3

CCC(=O)NCC(=O)O
survivor count (T/C endpoint: mean survival time, dose: 100.0 mg/kg/injection, schedule: Q04DX003 (ip), vehicle: saline with Tween-80): 2 of 6
survivor count (T/C endpoint: mean survival time, dose: 200.0 mg/kg/injection, schedule: Q04DX003 (ip), vehicle: saline with Tween-80): 3 of 6
survivor count [6]: 3 of 6

CCC1CCCCN1C(=S)N/N=C(\C)c1ccccn1 (stereo unspecified)
survivor count (T/C endpoint: median survival time, dose: 50.0 mg/kg/injection, schedule: Q01DX009 (ip), vehicle: saline with Tween-80): 1 of 6
survivor count (T/C endpoint: median survival time, dose: 100.0 mg/kg/injection, schedule: Q01DX009 (ip), vehicle: saline with Tween-80): 0 of 6

O=C(O)/C=N/NS(=O)(=O)c1ccc2ccccc2c1
survivor count [7]: 3 of 6

OC1CCCC2CCC[N-]C12.OC1CCCC2CCC[N-]C12.[Mn+2] (stereo unspecified)
survivor count (T/C endpoint: mean survival time, dose: 200.0 mg/kg/injection, schedule: Q01DX009 (ip), vehicle: Klucel (hydroxypropylcellulose) (HPC)): 3 of 6
survivor count (T/C endpoint: mean survival time, dose: 400.0 mg/kg/injection, schedule: Q01DX009 (ip), vehicle: Klucel (hydroxypropylcellulose) (HPC)): 2 of 6

CNNCCC(=O)NC(C)C
survivor count [8]: 1 of 6

Cc1ccccc1NC(=O)CN(C)C
survivor count [5]: 3 of 6

O=S(=O)(O)c1ccc(/C2=c3\cc/c([n-]3)=C(\c3ccc(S(=O)(=O)O)cc3)c3ccc([n-]3)/C(c3ccc(S(=O)(=O)O)cc3)=c3/cc/c([n-]3)=C(\c3ccc(S(=O)(=O)O)cc3)c3ccc2[n-]3)cc1.[Co]
survivor count (T/C endpoint: mean survival time, dose: 400.0 mg/kg/injection, schedule: Q04DX002 (ip), vehicle: saline): 0 of 3

CC(C(=O)O)[Se](=O)O (stereo unspecified)
survivor count (T/C endpoint: mean survival time, dose: 100.0 mg/kg/injection, schedule: Q04DX003 (ip), vehicle: saline): 1 of 3
survivor count (T/C endpoint: mean survival time, dose: 200.0 mg/kg/injection, schedule: Q04DX003 (ip), vehicle: saline): 0 of 3
survivor count [8]: 0 of 3

CC[S+](CC)CC
survivor count (T/C endpoint: mean survival time, dose: 200.0 mg/kg/injection, schedule: Q01DX009 (ip), vehicle: saline): 1 of 6

COc1cc(C=Nc2cccc(F)c2)ccc1N(CCCl)CCCl
survivor count (T/C endpoint: mean survival time, dose: 27.0 mg/kg/injection, schedule: Q01DX015 (ip), vehicle: saline): 5 of 6
survivor count (T/C endpoint: mean survival time, dose: 45.0 mg/kg/injection, schedule: Q01DX015 (ip), vehicle: saline): 1 of 6
survivor count (T/C endpoint: mean survival time, dose: 75.0 mg/kg/injection, schedule: Q01DX015 (ip), vehicle: saline): 0 of 6
survivor count [4]: 3 of 6

CN(C)C=O
survivor count (T/C endpoint: mean survival time, dose: 3200.0 mg/kg/injection, schedule: Q01DX009 (ip), vehicle: saline): 3 of 6

COc1cc(CC#N)ccc1OCc1ccccc1
survivor count [1]: 0 of 6
survivor count [2]: 1 of 6
survivor count [7]: 0 of 6

Nc1ccc2c(c1)[nH]c1ccccc12
survivor count [6]: 4 of 6

O=C(Nc1cccc(O)c1)C1CC1
survivor count (T/C endpoint: mean survival time, dose: 400.0 mg/kg/injection, schedule: Q01DX001 (ip), vehicle: saline with Tween-80): 2 of 6

O=C(O)C/[N+]([O-])=N\O
survivor count (T/C endpoint: mean survival time, dose: 800.0 mg/kg/injection, schedule: Q04DX003 (ip), vehicle: saline): 0 of 6
